Assay results reported in US8962646B2, “Peripherally acting opioid compounds” (Alkermes, Inc., priority 2011, dated 2015).

Test system: acetic acid induced writhing
Assay: Acetic-acid induced writhing model of inflammatory pain
Assay type: in vivo
Conditions: mice, intraperitoneal, 1% acetic acid
Experimental: The number of writhes was counted for 15 minutes (3 consecutive 5 minute time bins). […] “Normal” posture was defined as movements opposite to those listed above (e.g. convex curvature of the spine, legs not extended, abdomen not lowered, tail in a straight or relaxed position, etc).
The total number of writhes over the 15 minute test session was used for all data analysis. All data was transformed using GraphPad Prism to % change from daily vehicle control for analysis based on the number of writhes produced by the saline vehicle control group (% change=# writhes in test group/mean # of writhes in daily vehicle control group*100).

## CN1CC[C@]23c4c5ccc(O)c4O[C@H]2[C@@H](O)C=CC3C1C5 (some centres unmarked) [A, morphine, reference compound]
Mus musculus, ip
  ED50: 0.25 mg/kg
  Effect on acetic acid induced writhing: dose-dependently blocks writhing
